Measurements reported in PubChem BioAssay AID743454 (Peter MacCallum Cancer Centre, 2014).
Assay: 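Genes whose loss kills vorinostat-resistant colon cancer cells under vorinostat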 (primary screen). Cells: human HCT116-VR colon cancer cells, selected for vorinostat resistance. Knock-down reagent: siRNA pool against human genes, 40 nM siRNA pool. Time to read-out: vorinostat for 24 h, read-out about 72 h after transfection. Conditions: vorinostat at 2.5 µM final. Measured: 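Cell viability by CellTiter-Fluor and caspase 3/7 activity by luminescence, each scaled to mock wells per plate, duplicates averaged, then robust z-scored over all plates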. Reading the numbers: viability robust z-score: higher = more viable cells than screen typical; caspase robust z-score: higher = more caspase 3/7 activity than screen typical. Hit rule: 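a knock-down is a hit when classed RV1 or RV2 for lowered viability, or CA1 or CA2 for caspase activation; those lethal without drug were dropped; hits were retested singly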.
The deposit covers about 18,000 reagents; shown is an unselected part. 450 of them (2.5%) were called active. 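Single biological run; no consistent viability z cut-off exists, so the class columns, not z-scores, define the calls.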

gene knocked down,viability hit class,caspase hit class,viability robust z-score,caspase robust z-score,outcome
SAMD5 (sterile alpha motif domain containing 5),no change,no change,1.62,0.39,inactive
C19orf53 (chromosome 19 open reading frame 53),no change,no change,0.62,-0.5,inactive
IQCB1 (IQ motif containing B1),no change,no change,-2.24,3.24,inactive
SRSF4 (serine and arginine rich splicing factor 4),no change,no change,0.46,-0.86,inactive
CYP2B6 (cytochrome P450 family 2 subfamily B member 6),no change,no change,-0.04,-0.22,inactive
DDIT3 (DNA damage inducible transcript 3),no change,no change,-0.64,1.6,inactive
PGAP1 (post-GPI attachment to proteins inositol deacylase 1),no change,no change,-0.97,4.6,inactive
SLC30A8,no change,no change,-2.21,0.08,inactive
AIRIM (AFG2 interacting ribosome maturation factor),no change,no change,0.44,0.02,inactive
LRRC31 (leucine rich repeat containing 31),no change,no change,2.25,-0.52,inactive
CLDN17 (claudin 17),no change,no change,-1.31,-0.56,inactive
AMTN (amelotin),no change,no change,-0.01,1.2,inactive
CEP76 (centrosomal protein 76),no change,no change,-0.55,1.15,inactive
PTBP2 (polypyrimidine tract binding protein 2),no change,no change,-0.12,1.04,inactive
CHRNA10 (cholinergic receptor nicotinic alpha 10 subunit),no change,no change,-0.17,-0.77,inactive
KIAA0319,no change,no change,0.05,-1.07,inactive
SSX4 (SSX family member 4),no change,no change,0.72,-0.78,inactive
SIGLEC1 (sialic acid binding Ig like lectin 1),no change,no change,-1.29,-0.84,inactive
MMP26 (matrix metallopeptidase 26),no change,no change,-0.05,0.1,inactive
ALDH2 (aldehyde dehydrogenase 2 family member),no change,no change,0.68,0.96,inactive
"BLK (BLK proto-oncogene, Src family tyrosine kinase)",no change,no change,0.55,3.17,inactive

Records listed so far whose target name begins with P or p (2):
gene knocked down,viability hit class,caspase hit class,viability robust z-score,caspase robust z-score,outcome
PGAP1 (post-GPI attachment to proteins inositol deacylase 1),no change,no change,-0.97,4.6,inactive
PTBP2 (polypyrimidine tract binding protein 2),no change,no change,-0.12,1.04,inactive

More results:
gene knocked down,viability hit class,caspase hit class,viability robust z-score,caspase robust z-score,outcome
QSER1 (glutamine and serine rich 1),no change,no change,1.53,1.83,inactive
CDH6 (cadherin 6),no change,no change,0.64,-0.49,inactive
GCNT2 (glucosaminyl (N-acetyl) transferase 2 (I blood group)),no change,no change,0.14,-0.63,inactive
OR2M7 (olfactory receptor family 2 subfamily M member 7),no change,no change,-0.55,0.55,inactive
ZNF300 (zinc finger protein 300),no change,no change,-1.44,-0.54,inactive
OR2B6 (olfactory receptor family 2 subfamily B member 6),no change,no change,0.14,-0.03,inactive
CCT7 (chaperonin containing TCP1 subunit 7),no change,no change,-1.17,-0.35,inactive
RBM15B (RNA binding motif protein 15B),no change,no change,-0.46,2.78,inactive
VAMP5 (vesicle associated membrane protein 5),no change,no change,0.11,0.66,inactive
ZNF395 (zinc finger protein 395),no change,no change,-0.16,-0.84,inactive
SFN (stratifin),no change,no change,-0.54,0.58,inactive
DEFB115 (defensin beta 115),no change,no change,0.05,-0.8,inactive
DGCR8 (DGCR8 microprocessor complex subunit),no change,no change,-0.62,-0.13,inactive
MTARC2 (mitochondrial amidoxime reducing component 2),no change,no change,0.2,-0.91,inactive
RADIL (Rap associating with DIL domain),no change,no change,0.75,-0.14,inactive
CYB5R4 (cytochrome b5 reductase 4),no change,no change,-0.84,-0.98,inactive
UBR2 (ubiquitin protein ligase E3 component n-recognin 2),no change,no change,-1.25,0.4,inactive
BLNK (B cell linker),no change,no change,0.26,1.52,inactive
